Results as given in patent US20220033505A1.
Results are given in words; binding and its absence hold for the method and conditions named. Some results given as binding are weak or reduced against the parent protein; the word gives no strength.

The chains behind the UniProt entries cited, without tags or fusion partners. Residues count along the entry.
UniProt P07766, residues 23-207: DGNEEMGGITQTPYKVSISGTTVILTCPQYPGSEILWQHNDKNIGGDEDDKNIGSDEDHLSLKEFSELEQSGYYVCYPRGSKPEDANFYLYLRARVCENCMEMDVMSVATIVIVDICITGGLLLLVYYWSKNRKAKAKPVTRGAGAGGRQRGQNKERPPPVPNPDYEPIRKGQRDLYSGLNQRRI

What was measured:
[1] = biological target: CD3 on human T cells (Jurkat cells, primary human T cells) (human) (UniProt P07766); experiment: flow cytometry; hybridoma supernatant on Jurkat cells
[2] = biological target: CD3 on human T cells (Jurkat cells, primary human T cells) (human) (UniProt P07766); experiment: flow cytometry; hybridoma supernatant on primary T cells
[3] = biological target: CD3 on human T cells (Jurkat cells, primary human T cells) (human) (UniProt P07766); experiment: binding to Jurkat cells
[4] = biological target: CD3 on human T cells (Jurkat cells, primary human T cells) (human) (UniProt P07766); experiment: flow cytometry; scFv in E. coli supernatant on human T cells
[5] = biological target: CD3W147 (homodimeric CD3 epsilon-gamma-Fc) (human); experiment: ELISA; biotinylated CD3W147 immobilized at 0.039-2.5 ug/mL, scFv in E. coli supernatant, anti-HA-HRP

binding [4] | binding [5] | Binder | further results
binds | binds | CD3W241-HL-E.c. (scFv, name in Kabat numbering) scFv: EVQLVESGGGLVKPGGSLRLSCAASGFTFSRYNMNWVRQAPGKGLEWVSSISTSSNYIYYADSVKGRFTFSRDNAKNSLDLQMSGLRAEDTAIYYCTRGWGPFDYWGQGTLVTVSSGTEGKSSGSGSESKSTDIQMTQSPSSLSASVGDRVTITCRARQSIGTAIHWYQQKPGKAPKLLIYYASESISGVPSRFSGSGSGTDFTLTISSVQPEDFATYYCQQSNSWPYTFGQGTKLEIKGPGGQHHHHHHGAYPYDVPDYAS | 
binds |  | CD3W244-HL-E.c. (scFv) scFv: EVQLVESGGGLVKPGGSLRLSCAASGFTFSRYNMNWVRQAPGKGLEWVSSISTSSNYIYYADSVKGRFTFSRDNAKNSLDLQMSGLRAEDTAIYYCTRGWGPFDYWGQGTLVTVSSGTEGKSSGSGSESKSTDIQMTQSPSSLSASVGDRVTITCRARQSIGTAIHWYQQKPGKAPKLLIYYASESISGVPSRFSGSGSGTDFTLTISSVQPEDFATYYCQQSGSWPYTFGQGTKLEIKGPGGQHHHHHHGAYPYDVPDYAS | 
binds |  | CD3W247-HL-E.c. (scFv) scFv: EVQLVESGGGLVKPGGSLRLSCAASGFTFSRYNMNWVRQAPGKGLEWVSSISTSSNYIYYADSVKGRFTFSRDNAKNSLDLQMSGLRAEDTAIYYCTRGWGPFDYWGQGTLVTVSSGTEGKSSGSGSESKSTDIQMTQSPSSLSASVGDRVTITCRARQSIGTAIHWYQQKPGKAPKLLIYYASESISGVPSRFSGSGSGTDFTLTISSLQPEDFATYYCQQSGSWPYTFGQGTKLEIKGPGGQHHHHHHGAYPYDVPDYAS | 

More lines, now with the values behind:

Binder | binding [4] | binding [5] | further results
clone 065_D03 (hybridoma supernatant) (antibody, V domains shown) VH: EVQLVESGGGLVKPGGSLRLSCAASGFTFSRYNMNWVRQAPGKGLEWVSSISTSSNYIYYADSVKGRFTFSRDNAKNSLDLQMSGLRAEDTAIYYCTRGWGPFDYWGQGTLVTVSS VL: DILLTQSPGILSVSPGERVSFSCRARQSIGTAIHWYQQRTNGSPRLLIKYASESISGIPSRFSGSGSGTDFTLTINSVESEDIADYYCQQSNSWPYTFGGGTKLEIK |  |  | binding [1]: binds; binding [2]: binds
CD3B815 (antibody, human IgG1, kappa, V domains shown) VH: EVQLVESGGGLVKPGGSLRLSCAASGFTFSRYNMNWVRQAPGKGLEWVSSISTSSNYIYYADSVKGRFTFSRDNAKNSLDLQMSGLRAEDTAIYYCTRGWGPFDYWGQGTLVTVSS VL: DILLTQSPGILSVSPGERVSFSCRARQSIGTAIHWYQQRTNGSPRLLIKYASESISGIPSRFSGSGSGTDFTLTINSVESEDIADYYCQQSNSWPYTFGGGTKLEIKR |  |  | binding [3]: binds
CD3W234-HL-E.c. (scFv) scFv: EVQLVESGGGLVKPGGSLRLSCAASGFTFSRYNMNWVRQAPGKGLEWVSSISTSSNYIYYADSVKGRFTFSRDNAKNSLDLQMSGLRAEDTAIYYCTRGWGPFDYWGQGTLVTVSSGTEGKSSGSGSESKSTDILLTQSPGILSVSPGERVSFSCRARQSIGTAIHWYQQRTNGSPRLLIKYASESISGIPSRFSGSGSGTDFTLTINSVESEDIADYYCQQSNSWPYTFGGGTKLEIKGPGGQHHHHHHGAYPYDVPDYAS | binds | binds | 
CD3W248-HL-E.c. (scFv) scFv: EVQLVESGGGLVKPGGSLRLSCAASGFTFSRYNMNWVRQAPGKGLEWVSSISTSSNYIYYADSVKGRFTFSRDNAKNSLDLQMSGLRAEDTAIYYCTRGWGPFDYWGQGTLVTVSSGTEGKSSGSGSESKSTDILLTQSPGILSVSPGERVSFSCRARQSIGTAIHWYQQRTNGSPRLLIKYASESISGIPSRFSGSGSGTDFTLTINSVESEDIADYYCQQSGSWPYTFGGGTKLEIKGPGGQHHHHHHGAYPYDVPDYAS | binds |  | 
CD3W238-HL-E.c. (scFv) scFv: EVQLVESGGGLVKPGGSLRLSCAASGFTFSRYNMNWVRQAPGKGLEWVSSISTSSNYIYYADSVKGRFTFSRDNAKNSLDLQMSGLRAEDTAIYYCTRGWGPFDYWGQGTLVTVSSGTEGKSSGSGSESKSTDIQMTQSPSSLSASVGDRVTITCRARQSIGTAIHWYQQKPGKAPKLLIYYASESISGVPSRFSGSGSGTDFTLTISSLQPEDFATYYCQQSNSWPYTFGQGTKLEIKGPGGQHHHHHHGAYPYDVPDYAS | binds | binds | 
CD3W242-HL-E.c. (scFv) scFv: EVQLVESGGGLVKPGGSLRLSCAASGFTFSRYNMNWVRQAPGKGLEWVSSISTSSNYIYYADSVKGRFTFSRDNAKNSLDLQMSGLRAEDTAIYYCTRGWGPFDYWGQGTLVTVSSGTEGKSSGSGSESKSTDIQMTQSPSSLSASVGDRVTITCRARQSIGTAIHWYQQKPGKAPKLLIKYASESISGVPSRFSGSGSGTDFTLTISSLQPEDFATYYCQQSNSWPYTFGQGTKLEIKGPGGQHHHHHHGAYPYDVPDYAS | binds | binds | 
CD3W245-HL-E.c. (scFv) scFv: EVQLVESGGGLVKPGGSLRLSCAASGFTFSRYNMNWVRQAPGKGLEWVSSISTSSNYIYYADSVKGRFTFSRDNAKNSLDLQMSGLRAEDTAIYYCTRGWGPFDYWGQGTLVTVSSGTEGKSSGSGSESKSTDIQMTQSPSSLSASVGDRVTITCRARQSIGTAIHWYQQKPGKAPKLLIKYASESISGVPSRFSGSGSGTDFTLTISSLQPEDFATYYCQQSGSWPYTFGQGTKLEIKGPGGQHHHHHHGAYPYDVPDYAS | binds |  | 
CD3W243-HL-E.c. (scFv) scFv: EVQLVESGGGLVKPGGSLRLSCAASGFTFSRYNMNWVRQAPGKGLEWVSSISTSSNYIYYADSVKGRFTFSRDNAKNSLDLQMSGLRAEDTAIYYCTRGWGPFDYWGQGTLVTVSSGTEGKSSGSGSESKSTDIQMTQSPSSLSASVGDRVTITCRARQSIGTAIHWYQQKPGKAPKLLIKYASESISGVPSRFSGSGSGTDFTLTISSVQPEDFATYYCQQSNSWPYTFGQGTKLEIKGPGGQHHHHHHGAYPYDVPDYAS | binds | binds | 
CD3W246-HL-E.c. (scFv) scFv: EVQLVESGGGLVKPGGSLRLSCAASGFTFSRYNMNWVRQAPGKGLEWVSSISTSSNYIYYADSVKGRFTFSRDNAKNSLDLQMSGLRAEDTAIYYCTRGWGPFDYWGQGTLVTVSSGTEGKSSGSGSESKSTDIQMTQSPSSLSASVGDRVTITCRARQSIGTAIHWYQQKPGKAPKLLIKYASESISGVPSRFSGSGSGTDFTLTISSVQPEDFATYYCQQSGSWPYTFGQGTKLEIKGPGGQHHHHHHGAYPYDVPDYAS | binds |  | 
